Tested on: misfolded Aβ dimers
Test: Contour length analysis of interacting segments within Aβ dimers
Type: binding, human
Conditions: for contour length, major contribution / maximum: Supplementary Figs. S3a-S5a, loading rate not given
Text: We used the contour length measurements to identify segments of the peptides involved in dimer formation. The measured contour length is comprised of the length of the flexible tethers used for peptide immobilization and the length of the segment of the peptide from the anchoring point to the rupture position. The latter, according to the schematic in Fig. 1, was obtained by subtracting the lengths of all linkers from the measured contour lengths.
Probing interactions of Aβ peptides within a dimer by SMFS provides a pattern of peptide interactions within the dimers. According to the immobilization procedure, the peptide is covalently bound at its N−terminal cysteine. The experimentally measured contour length consists of two major components, the lengths of the flexible tethers used for peptide immobilization and the length of the peptide segment between the N−terminus and the segment of the peptide involved in interpeptide interactions. Therefore, the position of the peak on the force−distance curve is defined by the peptide length between the N−terminus and the interacting segment. […] The closer the interacting segment is to the N−terminus, the shorter the contour length will be when measured by AFM. […] The contour length of PEG 3400 was estimated to be 22.0 ± 0.9 nm[28]. Lengths of both aminopropyl silatrane (APS) and MAS were ~ 2.5 nm[13]. Therefore, the total length of all linkers was 24.5 ± 0.9 nm. In addition, the distance between N−termini of two peptides was estimated to be 1.0 nm.
All cysteinyl−Aβ peptides were synthesized using 9−fluorenylmethoxycarbonyl (FMOC) chemistry and purified by reverse phase high performance liquid chromatography (RP−HPLC). The identity and purity (usually > 97%) of the peptides were confirmed by amino acid analysis followed by mass spectrometry and RP−HPLC. Functionalization of AFM tips and mica substrates were prepared according to previously published procedures. Briefly, 20 nM Aβ monomers were immobilized on mica functionalized with aminopropyl silatrane (APS) via PEG 3400 tethers and on AFM tips through maleimide silatrane (MAS). For DFS study, the tip retraction speeds ranged from 100 nm/s to 4000 nm/s. The dwell time was set at 0.3 s when retraction speed reached 1000 nm/s and above. Force curves with rupture event were subject to WLC analysis, as shown below. [drawing 1] Rupture force distributions were fitted with a probability density function: [drawing 2] Dynamic force spectra were fitted with Bell−Evans model[21]: [drawing 3] The energy profiles were reconstructed according to previous papers, using the equation below. [drawing 4] Positions of interacting segments of Aβ monomers within dimers were estimated by subtracting from the measured contour lengths the lengths of all linkers and the distance between N−termini of monomers (see Fig. 1a). The contour length of PEG was estimated with the following equation[28]: [drawing 5] Where Lc(F) is the contour length, Ns is the average number of monomers, Lplanar is the length of monomers with planar conformation, Lhelical is the length of monomers with helical conformation, ΔG(F) is the free energy difference at zero appling force. The Ns is 77 ± 10 for 3400 Da PEG. The Lplanar and Lhelical are 3.58 Å and 2.8 Å, respectively. The ΔG(F) is fixed at 3 kBT. The contour length of PEG was thus estimated to be 22.0 ± 0.9 nm. All error bars represent SEM. Detailed methods can be found in Supplementary Information.

[1] = contour length minus linkers, converted to residues, Fig. 5a
[2] = loading rates of 5000−7000 pN/s, WLC fit, includes linkers

Aβ40: alloform of human amyloid β−protein; cysteinyl−Aβ peptide, Cys residue placed at the N−terminus
length of N-terminal segment, peak 2 [1]: ~ 20 residues | length of N-terminal segment, peak 3 [1]: ~35 residues | contour length, major data cluster [2]: around 33 nm

Aβ42: alloform of human amyloid β−protein with two additional C−terminal residues; cysteinyl−peptide
contour length, major contribution / maximum (includes linkers): ~ 56 nm

[VPV]Aβ40: Aβ40 mutant with VPV substitutions (Gly33Val−Val36Pro−Gly38Val); cysteinyl−peptide
contour length, major data cluster [2]: ~ 42 nm | contour length, minor data cluster [2]: ~ 33 nm | contour length, second (comparable) data cluster [2]: ~ 57 nm | contour length at which doubled rupture forces occur (scatter plot Fig. 4c, loading rates of 5000−7000 pN/s): ~ 32 nm

[VPV]Aβ42: Aβ42 with VPV substitutions (Gly33Val−Val36Pro−Gly38Val); cysteinyl−peptide
contour length, major contribution / maximum (includes linkers): ~ 42 nm

Source: publication PMC3791449, “Mechanism of amyloid β−protein dimerization determined using single−molecule AFM force spectroscopy” (Scientific Reports, 2013)
